Where a name gives a salt, the structure may show the parent alone. This is one part of the list. Rule as the data show it: active = 1.25 or more and inactive = the rest. Most values come without repeats; read them as rough.

The subject of the assay is Kcc2-LUC knock-in mouse primary cortical neurons (Kcc2 promoter reporter). Briefly: Kcc2 promoter-driven luciferase activity relative to vehicle control (fold of vehicle (ratio)); higher = stronger Kcc2 promoter activation (Kcc2 expression enhancer). To be noted: 100 nM; 48 h.
On to `O=C1OC(c2ccccc2)=N/C1=C\c1ccc(N(CCCl)CCCl)cc1`, for which the “Kcc2 promoter-driven luciferase activity” value is inactive: 0.88.

For `CC[C@H](C)[C@H]1NC(=O)[C@@H](NC(=O)[C@@H](CC(C)C)N(C)C(=O)[C@@H]2CCCN2C(=O)C(C)O)[C@@H](C)OC(=O)[C@H](Cc2ccc(OC)cc2)N(C)C(=O)[C@@H]2CCCN2C(=O)[C@H](CC(C)C)NC(=O)[C@@H](C)C(=O)[C@H](C(C)C)OC(=O)C[C@@H]1O` (some centres undefined) [Didemnin B], the “Kcc2 promoter-driven luciferase activity” value was inactive: 0.49.

`CCOC(OCC)C(CC)[Se]c1ccccc1[N+](=O)[O-]` (centres undefined) [1-(1,1-Diethoxybutan-2-ylselanyl)-2-nitrobenzene]: the “Kcc2 promoter-driven luciferase activity” value was inactive: 0.81.

`[Cl][Pt+2]([Cl])([Cl])[Cl].c1ccc(C2CC[N-]CC2)cc1.c1ccc(C2CC[N-]CC2)cc1` [Platinum, (OC-6-22)]: the “Kcc2 promoter-driven luciferase activity” value is inactive: 1.23.

Take `CO[C@@H](/C(C)=C/C=C/C(C)=C/c1coc(C)n1)[C@@H](C)[C@@H]1C[C@H](O)[C@@]2(C)O[C@@H]2/C=C/[C@@H](C)[C@H]2C[C@H](CC(=O)O2)C[C@@H]2O[C@H]2C(=O)O1`: the “Kcc2 promoter-driven luciferase activity” value is inactive: 1.07.

`CO[C@@H](C)[C@](O)(C(=O)OCC1=CCN2CC[C@H](O)[C@@H]12)C(C)(C)O` [Europine]: the “Kcc2 promoter-driven luciferase activity” value was inactive: 0.61.

Consider `CC(=O)OC1C(O)C(C)OC(OC2C(OC(=O)C3CCC4C(C3)OC3(CC(OC(=O)/C=C/c5ccccc5)C(C)CO3)C43CO3)OC(C)C(O)C2OC(C)=O)C1O` (centres undefined), for which the “Kcc2 promoter-driven luciferase activity” value was active: 1.25.

As for `O=C1N[C@@H]2C(=C[C@H](O)[C@@H](O)[C@H]2O)c2cc3c(c(O)c21)OCO3` [Narciclasine], the “Kcc2 promoter-driven luciferase activity” value was inactive: 0.67.

As for `CO[C@H]1Nc2c(ccc(C)c2O)C(=O)N2C=C(/C=C/C(N)=O)C[C@@H]12` [Anthramycin Methyl Ether], the “Kcc2 promoter-driven luciferase activity” value is inactive: 0.675.

In the case of `CC1(C)CC2=NO[Se]3=C2C(=NO3)C1`, the “Kcc2 promoter-driven luciferase activity” value is inactive: 1.06.

`CCCCCC1=C/C(=C/c2[nH]c(-c3ccc[nH]3)cc2OC)N=C1C` [Prodigiosin]: the “Kcc2 promoter-driven luciferase activity” value was inactive: 1.01.

As to `CCN1C[C@]2(COC)[C@H](O)C[C@H](OC)[C@@]34[C@@H]5C[C@@]6(O)[C@H](OC(=O)c7ccccc7)[C@@H]5[C@@](OC(C)=O)([C@@H]([C@H](OC)[C@H]23)[C@@H]14)[C@@H](O)[C@@H]6OC` [Aconitine], the “Kcc2 promoter-driven luciferase activity” value is inactive: 0.77.

As for `CC[C@@]1(O)C[C@H](O)c2c(O)c3c(c(O)c2[C@H]1C(=O)OC)C(=O)c1cccc(O)c1C3=O` [epsilon.-Rhodomycinone], the “Kcc2 promoter-driven luciferase activity” value is inactive: 0.95.

`COc1ccc2c(c1O)-c1c(OC)c(OC)cc3c1[C@H](C2)N(C)CC3` [Luteanine]: the “Kcc2 promoter-driven luciferase activity” value is inactive: 1.23.

Consider `COC1C(C)OC(OC2CC(C)(O)Cc3cc4c(c(O)c32)C(=O)c2c(O)cc3c(c2C4=O)OC2OC3(C)C(O)C(N(C)C)C2O)C(OC)C1(C)OC` (centres undefined), for which the “Kcc2 promoter-driven luciferase activity” value is inactive: 0.88.

Regarding `CC(=O)[O][Sn]([CH2]c1ccccc1)([CH2]c1ccccc1)[CH2]c1ccccc1` [Tribenzyltin acetate], the “Kcc2 promoter-driven luciferase activity” value is inactive: 0.7.

Take `CO[C@H]1CC=C2CCN3CCC4=C(CC(=O)OC4)[C@]23C1` [Dihydro-beta-erythroidine]: the “Kcc2 promoter-driven luciferase activity” value was inactive: 0.61.

For the molecule `C[C@H]1C(=O)O[C@@H]2CCN3CC=C(COC(=O)[C@](C)(O)[C@]1(C)O)[C@H]23` [Monocrotalin], the “Kcc2 promoter-driven luciferase activity” value is inactive: 0.49.

As for `COc1c2c(c(CC=C(C)C)c3oc(=O)c(-c4ccc(O)cc4)c(O)c13)OC(C)(C)C=C2` [Lonchocarpic Acid], the “Kcc2 promoter-driven luciferase activity” value is inactive: 1.25.

For `CN1[C@@H]2C[C@@H](OC(=O)[C@H](CO)c3ccccc3)C[C@H]1[C@@H]1O[C@@H]12` [Scopolamine Hydrobromide], the “Kcc2 promoter-driven luciferase activity” value was inactive: 0.46.

As to `Cc1c2ccncc2c(C)c2c1[nH]c1ccccc12` [Ellipticine], the “Kcc2 promoter-driven luciferase activity” value was inactive: 0.52.

As to `CC[C@](C)(O)C(=O)O[C@H]1C(=O)O[C@@H]2C[C@H]3C(C)=C[C@H](O)[C@@H](O)[C@]3(C)[C@H]3[C@]4(O)OC[C@]32[C@@H]1[C@@H](C)[C@H]4O` [GLAUCARUBIN; Simarubaceae], the “Kcc2 promoter-driven luciferase activity” value was inactive: 0.845.

`O=[N+]([O-])c1cc(C(F)(F)F)cc2n[se]nc12` [4-Nitro-6-(trifluoromethyl)-2,1,3-benzoselenadiazole]: the “Kcc2 promoter-driven luciferase activity” value is inactive: 1.09.

As to `CC[C@](C)(O)C(=O)O[C@H]1C(=O)O[C@@H]2C[C@H]3C(C)=CC(=O)[C@@H](O)[C@]3(C)[C@H]3C4(O)OC[C@]32[C@@H]1[C@@H](C)[C@H]4O`, the “Kcc2 promoter-driven luciferase activity” value was inactive: 0.681.

The record behind these values is the supplement of paper PMC8551327.
